Results taken from PMC4404914, “Adenoviral L4 33K forms ring-like oligomers and stimulates ATPase activity of IVa2: implications in viral genome packaging” (Frontiers in Microbiology, 2015).
These are yes or no findings as the source states them, for the method shown. Some results given as binding are weak or reduced against the parent protein; the word gives no strength. For some of these results: Sequences can lack the tags named with a protein.

What was measured:
[1] = biological target: IVa2 protein of human adenovirus serotype 5 (HAdV5), expressed from the virus (human adenovirus serotype 5 (HAdV5)) (UniProt P03271); test: non-reducing SDS-PAGE with Western blot; lysates of HAdV5-infected cells, 36 h post-infection, 20 ug; Laemmli buffer with 2% SDS, with (boiled 5 min) or without 5% beta-mercaptoethanol; blots with anti-IVa2 or anti-33K
[2] = biological target: IVa2 protein of human adenovirus serotype 5 (HAdV5), expressed from the virus (human adenovirus serotype 5 (HAdV5)) (UniProt P03271); test: condition: only reducing conditions (5% beta-mercaptoethanol, boiled); non-reducing SDS-PAGE with Western blot; lysates of HAdV5-infected cells, 36 h post-infection, 20 ug; Laemmli buffer with 2% SDS, with (boiled 5 min) or without 5% beta-mercaptoethanol; blots with anti-IVa2 or anti-33K
[3] = biological target: HAdV5 IVa2 expressed from pcDNA-IVa2 in 293 cells (human adenovirus serotype 5 (HAdV5)) (UniProt P03271); test: non-reducing SDS-PAGE with Western blot; lysates of transiently transfected cells, 36 h post-transfection (pcDNA-IVa2 in 293 or 293-33K; pcDNA-33K in 293 or 293-IVa2); with or without beta-mercaptoethanol; blots with anti-IVa2 or anti-33K
[4] = biological target: 6His-tagged HAdV5 IVa2, purified from E. coli (human adenovirus serotype 5 (HAdV5)) (UniProt P03271); test: condition: only reducing conditions (5% beta-mercaptoethanol, boiled); non-reducing SDS-PAGE with Coomassie staining or Western blot; purified bacterial IVa2 or 33K; Laemmli buffer with 2% SDS, with (boiled 5 min) or without 5% beta-mercaptoethanol; both purified

B1: IVa2 protein of human adenovirus serotype 5 (HAdV5), expressed from the virus (protein, UniProt P03271 1-449)
chain: METRGRRPAALQHQQDQPQAHPGQRAARSAPLHRDPDYADEDPAPVERHDPGPSGRAPTTAVQRKPPQPAKRGDMLDRDAVEQVTELWDRLELLGQTLKSMPTADGLKPLKNFASLQELLSLGGERLLADLVRENMRVRDMLNEVAPLLRDDGSCSSLNYQLHPVIGVIYGPTGCGKSQLLRNLLSSQLISPTPETVFFIAPQVDMIPPSELKAWEMQICEGNYAPGPDGTIIPQSGTLRPRFVKMAYDDLILEHNYDVSDPRNIFAQAAARGPIAIIMDECMENLGGHKGVSKFFHAFPSKLHDKFPKCTGYTVLVVLHNMNPRRDMAGNIANLKIQSKMHLISPRMHPSQLNRFVNTYTKGLPLAISLLLKDIFRHHAQRSCYDWIIYNTTPQHEALQWCYLHPRDGLMPMYLNIQSHLYHVLEKIHRTLNDRDRWSRAYRARKTPK
**Q.** With B1 as the binder, how does the binding [1] read?
**A.** binds

**Q.** And the binding [2]?
**A.** no binding

B2: HAdV5 IVa2 expressed from pcDNA-IVa2 in 293 cells (protein, UniProt P03271 1-449)
chain: METRGRRPAALQHQQDQPQAHPGQRAARSAPLHRDPDYADEDPAPVERHDPGPSGRAPTTAVQRKPPQPAKRGDMLDRDAVEQVTELWDRLELLGQTLKSMPTADGLKPLKNFASLQELLSLGGERLLADLVRENMRVRDMLNEVAPLLRDDGSCSSLNYQLHPVIGVIYGPTGCGKSQLLRNLLSSQLISPTPETVFFIAPQVDMIPPSELKAWEMQICEGNYAPGPDGTIIPQSGTLRPRFVKMAYDDLILEHNYDVSDPRNIFAQAAARGPIAIIMDECMENLGGHKGVSKFFHAFPSKLHDKFPKCTGYTVLVVLHNMNPRRDMAGNIANLKIQSKMHLISPRMHPSQLNRFVNTYTKGLPLAISLLLKDIFRHHAQRSCYDWIIYNTTPQHEALQWCYLHPRDGLMPMYLNIQSHLYHVLEKIHRTLNDRDRWSRAYRARKTPK
**Q.** With B2 as the binder, how does the binding [3] read?
**A.** binds

B3: 6His-tagged HAdV5 IVa2, purified from E. coli (natural protein)
chain: METRGRRPAALQHQQDQPQAHPGQRAARSAPLHRDPDYADEDPAPVERHDPGPSGRAPTTAVQRKPPQPAKRGDMLDRDAVEQVTELWDRLELLGQTLKSMPTADGLKPLKNFASLQELLSLGGERLLADLVRENMRVRDMLNEVAPLLRDDGSCSSLNYQLHPVIGVIYGPTGCGKSQLLRNLLSSQLISPTPETVFFIAPQVDMIPPSELKAWEMQICEGNYAPGPDGTIIPQSGTLRPRFVKMAYDDLILEHNYDVSDPRNIFAQAAARGPIAIIMDECMENLGGHKGVSKFFHAFPSKLHDKFPKCTGYTVLVVLHNMNPRRDMAGNIANLKIQSKMHLISPRMHPSQLNRFVNTYTKGLPLAISLLLKDIFRHHAQRSCYDWIIYNTTPQHEALQWCYLHPRDGLMPMYLNIQSHLYHVLEKIHRTLNDRDRWSRAYRARKTPK
notes: IVa2 of human adenovirus serotype 5; synthetic gene cassette, codon-optimized for bacteria, in pET28a (pET28-IVa2); the results speak of the full-length IVa2 band; A faster migrating band, perhaps a degradation product of IVa2, was also in the preparation; also called purified IVa2; source: E. coli BL21 (DE3) pLysS, purified (HiTrap NiNTA, HiPrep 16/10 SP-XL cation exchange)
**Q.** How did the binding [4] turn out when B3 was run?
**A.** no binding
